Experimental data taken from US20240132603A1.
Substitutions are numbered along the chain they refer to. These are yes or no findings as the source states them, for the method shown. Some entries that bind do so weakly or less than the wild type. Blank lines part the entries; values can stand above or below the binder they belong to.

Sequences of proteins named here, by UniProt entry; tags and fusion partners are left off. A change or cut given only in a name is not applied to a line headed by its entry. A line that says so, or that is headed by a name, gives the form on record, which may keep a tag or linker.
cynomolgus monkey CCR8 (G7NYJ2, form named): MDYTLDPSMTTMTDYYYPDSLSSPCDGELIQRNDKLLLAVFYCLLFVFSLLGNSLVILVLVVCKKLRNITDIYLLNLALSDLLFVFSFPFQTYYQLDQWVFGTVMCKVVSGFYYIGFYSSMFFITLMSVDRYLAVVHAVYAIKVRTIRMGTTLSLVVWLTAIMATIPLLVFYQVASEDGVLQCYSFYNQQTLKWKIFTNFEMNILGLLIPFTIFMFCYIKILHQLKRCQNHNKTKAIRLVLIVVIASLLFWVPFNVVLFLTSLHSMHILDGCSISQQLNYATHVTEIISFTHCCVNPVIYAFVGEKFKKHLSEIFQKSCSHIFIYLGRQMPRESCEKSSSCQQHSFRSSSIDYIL

Tests used:
[1] = target: cynomolgus monkey CCR8 (cynomolgus monkey) (UniProt G7NYJ2); experiment: FACS on CHO-K1 cells overexpressing cynomolgus monkey CCR8
[2] = target: cynomolgus monkey CCR8 (cynomolgus monkey) (UniProt G7NYJ2); experiment: FACS, CHO-K1-CynoCCR8 cells

binding [1]: binds
B1: PR004324 (antibody, human IgG1, kappa, V domains shown)
VH: EVQLVESGGGLVQPKGSLKLSCAASGFTFNTYAMNWVRQAPGKGLEWVARIRSKSNNYATYYADSVKDRFTISRDDSQSMLYLQMNNLKTEDTAMYYCVRGKENGNYYAMDFWGQGTSVTVSA
VL: DIVMTQAAPSVPVTPGESVSISCRSSKSLLHSNAKIYLYWFLQRPGQSPQLLIYRMSNLASGVPDRFSGSGSGTAFTLRISRVEAEDVGVYYCMQHLEYPLTFGAGTKLEIKR

binding [1]: binds
B2: PR004343 (antibody, human IgG1, kappa, V domains shown)
VH: B1 VH
VL: DIVMTQSPLSLPVTLGQPASISCRSSKSLLHSNGKIYLYWFQQRPGQSPRLLIYRMSNLASGVPDRFSGSGSGTDFTLKISRVEAEDVGVYYCMQHLEYPLTFGQGTKLEIKR

binding [2]: binds | binding [1]: binds
B3: PR004521 (antibody, human IgG1, kappa, V domains shown)
VH: B1 VH with K15G, P41S, A49G, Q78K, M80T, N87S, M95V, S118T, A123S
VL: B2 VL with L15P, Q17E, Q42L, R44K, R50Q

binding [1]: binds
B4: PR004335 (antibody, human IgG1, kappa, V domains shown)
VH: EVQLVESGGGLVQPGGSLRLSCAASGFTFNTYAMNWVRQAPGKGLEWVSRIRSKSNNYATYYADSVKDRFTISRDDSKSTLYLQMNSLRAEDTAVYYCVRGKENGNYYAMDYWGQGTTVTVSS
VL: B1 VL with A34G

binding [1]: binds
B5: PR004339 (antibody, human IgG1, kappa, V domains shown)
VH: B1 VH
VL: B2 VL with L15P, Q17E, Q42L, R44K, R50Q

binding [1]: binds
B6: PR004340 (antibody, human IgG1, kappa, V domains shown)
VH: B1 VH
VL: B2 VL with L15P, Q17E, K35N, I36T, Q42L, R44K, R50Q

binding [1]: binds
B7: PR004338 (antibody, human IgG1, kappa, V domains shown)
VH: B4 VH with R19K, P41S, S49G, R89K, A90T
VL: B1 VL with A34G

binding [1]: binds
B8: PR004325 (antibody, human IgG1, kappa, V domains shown)
VH: B1 VH
VL: B1 VL with N33Q, A34G

binding [2]: binds | binding [1]: binds
B9: PR005172 (antibody, human IgG1, kappa, V domains shown)
VH: B1 VH
VL: B1 VL with A34G, L101V

binding [1]: binds
B10: PR004327 (antibody, human IgG1, kappa, V domains shown)
VH: B1 VH with N30Q
VL: B1 VL with A34G

binding [1]: binds
B11: PR004337 (antibody, human IgG1, kappa, V domains shown)
VH: B4 VH with R19K, Y32N, P41S, S49G, R89K, A90T, Y112F
VL: B1 VL with A34G

binding [1]: binds
B12: PR004329 (antibody, human IgG1, kappa, V domains shown)
VH: B1 VH with N104Q
VL: B1 VL with A34G

binding [2]: binds | binding [1]: binds
B13: PR004663 (antibody, human IgG1, kappa, V domains shown)
VH: B4 VH with N30S, N104Q, Y112F
VL: B2 VL with L15P, Q17E, G34A, Q42L, R44K, R50Q

binding [2]: binds | binding [1]: binds
B14: PR004522 (antibody, human IgG1, kappa, V domains shown)
VH: B4 VH with Q13K, S49G, R89K, A90T, Y112F
VL: B2 VL with L15P, Q17E, K35N, I36T, Q42L, R44K, R50Q

binding [1]: binds
B15: PR004330 (antibody, human IgG1, kappa, V domains shown)
VH: B4 VH with Q13K, S49G, R89K, A90T, Y112F
VL: B1 VL with A34G

binding [2]: binds | binding [1]: binds
B16: PR004519 (antibody, human IgG1, kappa, V domains shown)
VH: B4 VH with Q13K, S49G, R89K, A90T, Y112F
VL: B2 VL with L15P, Q17E, Q42L, R44K, R50Q

binding [2]: binds | binding [1]: binds
B17: PR004527 (antibody, human IgG1, kappa, V domains shown)
VH: B4 VH with R19K, P41S, S49G, R89K, A90T, Y112F
VL: B2 VL

binding [1]: binds
B18: PR004326 (antibody, human IgG1, kappa, V domains shown)
VH: B1 VH with G105A
VL: B1 VL with A34G

binding [1]: binds
B19: PR004336 (antibody, human IgG1, kappa, V domains shown)
VH: B4 VH with R19K, P41S, S49G, R89K, A90T, Y112F
VL: B1 VL with A34G

binding [1]: binds
B20: PR004345 (antibody, human IgG1, kappa, V domains shown)
VH: B1 VH
VL: B2 VL with S26N, K35N, I36T

binding [1]: binds
B21: PR004334 (antibody, human IgG1, kappa, V domains shown)
VH: B4 VH with Y32N, Y112F
VL: B1 VL with A34G

binding [2]: binds | binding [1]: binds
B22: PR004524 (antibody, human IgG1, kappa, V domains shown)
VH: B4 VH with R19K, P41S, S49G, R89K, A90T, Y112F
VL: B2 VL with L15P, Q17E, K35N, I36T, Q42L, R44K, R50Q

binding [2]: binds | binding [1]: binds
B23: PR005170 (antibody, human IgG1, kappa, V domains shown)
VH: B1 VH
VL: B1 VL with A34G, L101I

binding [1]: binds
B24: PR004332 (antibody, human IgG1, kappa, V domains shown)
VH: B4 VH with Q13K, S49G, R89K, A90T
VL: B1 VL with A34G

binding [1]: binds
B25: PR004344 (antibody, human IgG1, kappa, V domains shown)
VH: B1 VH
VL: B2 VL with K35N, I36T

binding [2]: binds | binding [1]: binds
B26: PR004662 (antibody, human IgG1, kappa, V domains shown)
VH: B4 VH with N30S, G105A, Y112F
VL: B2 VL with L15P, Q17E, G34A, Q42L, R44K, R50Q

binding [2]: binds | binding [1]: binds
B27: PR005171 (antibody, human IgG1, kappa, V domains shown)
VH: B1 VH
VL: B1 VL with A34G, L101M

binding [1]: binds
B28: PR004331 (antibody, human IgG1, kappa, V domains shown)
VH: B4 VH with Q13K, Y32N, S49G, R89K, A90T, Y112F
VL: B1 VL with A34G

binding [1]: binds
B29: PR004333 (antibody, human IgG1, kappa, V domains shown)
VH: B4 VH with Y112F
VL: B1 VL with A34G

binding [1]: binds
B30: PR004328 (antibody, human IgG1, kappa, V domains shown)
VH: B1 VH with N30S
VL: B1 VL with A34G

binding [2]: binds | binding [1]: binds
B31: PR004523 (antibody, human IgG1, kappa, V domains shown)
VH: B4 VH with Y112F
VL: B2 VL with L15P, Q17E, K35N, I36T, Q42L, R44K, R50Q

binding [2]: binds | binding [1]: binds
B32: PR004667 (antibody, human IgG1, kappa, V domains shown)
VH: B4 VH with Q13K, N30S, S49G, R89K, A90T, N104Q, Y112F
VL: B2 VL with G34A

binding [2]: binds | binding [1]: binds
B33: PR006154 (antibody, human IgG1, kappa, V domains shown)
VH: B4 VH with Q13K, N30S, S49G, R89K, A90T, N104H, Y112F
VL: B2 VL with G34A

binding [2]: binds | binding [1]: binds
B34: PR006157 (antibody, human IgG1, kappa, V domains shown)
VH: B4 VH with Q13K, N30S, S49G, N57Y, R89K, A90T, N104I, Y112F
VL: B2 VL with G34A

binding [2]: binds | binding [1]: binds
B35: PR004660 (antibody, human IgG1, kappa, V domains shown)
VH: B4 VH with N30S, G105A, Y112F
VL: B2 VL with L15P, Q17E, Q42L, R44K, R50Q

binding [2]: binds | binding [1]: binds
B36: PR004665 (antibody, human IgG1, kappa, V domains shown)
VH: B4 VH with Q13K, N30S, S49G, R89K, A90T, N104Q, Y112F
VL: B2 VL

binding [2]: binds | binding [1]: binds
B37: PR004526 (antibody, human IgG1, kappa, V domains shown)
VH: B4 VH with Y112F
VL: B2 VL

binding [2]: binds | binding [1]: binds
B38: PR006161 (antibody, human IgG1, kappa, V domains shown)
VH: B4 VH with Q13K, N30S, S49G, N57Y, R89K, A90T, N104H, N106K, Y112F
VL: B2 VL with G34A

binding [2]: binds | binding [1]: binds
B39: PR004661 (antibody, human IgG1, kappa, V domains shown)
VH: B4 VH with N30S, N104Q, Y112F
VL: B2 VL with L15P, Q17E, Q42L, R44K, R50Q

binding [2]: binds | binding [1]: binds
B40: PR004664 (antibody, human IgG1, kappa, V domains shown)
VH: B4 VH with Q13K, N30S, S49G, R89K, A90T, G105A, Y112F
VL: B2 VL

binding [2]: binds | binding [1]: binds
B41: PR006156 (antibody, human IgG1, kappa, V domains shown)
VH: B4 VH with Q13K, N30S, S49G, R89K, A90T, N104I, Y112F
VL: B2 VL with G34A
